Experimental findings from doi:10.1101/2019.12.16.877498 are described below.

By UniProt entry, the sequences of proteins in these tests, tags left out.
UniProt Q8TDG2: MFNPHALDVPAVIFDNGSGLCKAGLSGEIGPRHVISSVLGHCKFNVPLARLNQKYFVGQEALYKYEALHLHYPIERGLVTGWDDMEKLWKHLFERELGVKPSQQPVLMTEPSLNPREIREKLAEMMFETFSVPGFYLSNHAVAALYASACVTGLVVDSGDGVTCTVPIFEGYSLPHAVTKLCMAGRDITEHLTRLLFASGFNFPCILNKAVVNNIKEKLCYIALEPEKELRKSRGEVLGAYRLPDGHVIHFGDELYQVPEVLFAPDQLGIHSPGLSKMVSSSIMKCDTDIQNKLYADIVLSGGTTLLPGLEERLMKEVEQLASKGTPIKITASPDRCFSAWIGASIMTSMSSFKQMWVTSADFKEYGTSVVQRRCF
UniProt O95816: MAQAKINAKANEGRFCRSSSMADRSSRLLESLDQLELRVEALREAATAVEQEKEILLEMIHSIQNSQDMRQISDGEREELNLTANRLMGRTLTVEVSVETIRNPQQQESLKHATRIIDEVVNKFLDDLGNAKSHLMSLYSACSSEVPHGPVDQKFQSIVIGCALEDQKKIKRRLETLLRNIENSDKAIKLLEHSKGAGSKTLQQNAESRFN
UniProt P11142: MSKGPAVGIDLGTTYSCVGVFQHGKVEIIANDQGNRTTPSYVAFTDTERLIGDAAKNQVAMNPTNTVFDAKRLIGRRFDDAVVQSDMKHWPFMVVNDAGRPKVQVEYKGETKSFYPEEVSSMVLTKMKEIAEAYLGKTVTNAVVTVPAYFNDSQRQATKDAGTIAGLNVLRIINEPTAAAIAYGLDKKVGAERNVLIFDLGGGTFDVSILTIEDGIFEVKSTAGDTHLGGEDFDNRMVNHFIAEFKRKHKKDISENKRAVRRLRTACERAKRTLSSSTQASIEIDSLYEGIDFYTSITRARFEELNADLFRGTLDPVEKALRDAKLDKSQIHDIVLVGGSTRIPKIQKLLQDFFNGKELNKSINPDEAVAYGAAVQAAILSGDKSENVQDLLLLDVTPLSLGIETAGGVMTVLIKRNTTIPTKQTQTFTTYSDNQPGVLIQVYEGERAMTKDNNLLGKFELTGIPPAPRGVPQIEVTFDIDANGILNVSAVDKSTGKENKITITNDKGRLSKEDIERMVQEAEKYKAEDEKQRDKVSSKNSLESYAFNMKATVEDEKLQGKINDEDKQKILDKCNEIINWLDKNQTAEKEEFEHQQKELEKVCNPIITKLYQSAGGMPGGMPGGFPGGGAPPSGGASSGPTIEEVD
UniProt P50990: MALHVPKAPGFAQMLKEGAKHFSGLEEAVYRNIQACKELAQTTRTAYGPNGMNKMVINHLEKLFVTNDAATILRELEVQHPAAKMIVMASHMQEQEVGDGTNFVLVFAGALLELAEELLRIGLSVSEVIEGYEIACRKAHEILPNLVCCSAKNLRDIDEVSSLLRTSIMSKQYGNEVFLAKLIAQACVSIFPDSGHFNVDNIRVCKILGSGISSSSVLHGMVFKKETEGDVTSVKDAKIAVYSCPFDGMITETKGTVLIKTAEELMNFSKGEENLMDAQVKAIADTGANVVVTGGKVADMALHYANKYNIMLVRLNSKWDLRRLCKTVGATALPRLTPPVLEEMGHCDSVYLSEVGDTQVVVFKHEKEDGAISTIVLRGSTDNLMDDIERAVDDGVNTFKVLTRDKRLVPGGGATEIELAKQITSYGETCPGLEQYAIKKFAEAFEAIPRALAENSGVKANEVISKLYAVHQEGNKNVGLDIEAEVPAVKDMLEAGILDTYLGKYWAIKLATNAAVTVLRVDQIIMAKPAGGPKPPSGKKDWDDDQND

In one assay the target is T1, EHD4 tagged with V5 (UniProt Q9H223).
T1 sequence: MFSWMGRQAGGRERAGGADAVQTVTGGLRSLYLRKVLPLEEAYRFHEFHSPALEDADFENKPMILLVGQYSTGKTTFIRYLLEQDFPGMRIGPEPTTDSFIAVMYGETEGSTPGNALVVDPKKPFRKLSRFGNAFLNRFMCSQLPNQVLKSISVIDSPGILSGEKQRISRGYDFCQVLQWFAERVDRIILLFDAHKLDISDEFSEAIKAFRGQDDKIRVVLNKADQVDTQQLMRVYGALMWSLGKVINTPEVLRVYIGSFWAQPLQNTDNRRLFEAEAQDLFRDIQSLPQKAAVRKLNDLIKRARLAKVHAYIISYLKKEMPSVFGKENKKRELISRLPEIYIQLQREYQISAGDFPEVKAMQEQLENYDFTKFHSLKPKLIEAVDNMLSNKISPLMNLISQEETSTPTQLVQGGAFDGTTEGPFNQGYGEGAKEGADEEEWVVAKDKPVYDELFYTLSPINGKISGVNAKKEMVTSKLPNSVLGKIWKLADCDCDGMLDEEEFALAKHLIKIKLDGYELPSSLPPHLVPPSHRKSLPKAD
Nature of the assay: co-IP.

Assay [1] deals with Actin-Related Protein-Testis1 (ARP-T1), wild type, tagged with Myc-DDK (human) (UniProt Q8TDG2). Nature of the assay: co-IP.
Assay [2] addresses ARP-T1, endogenous (human (endogenous in hTERT-RPE1)) (UniProt Q8TDG2). Nature of the assay: proximity ligation.
The target of assay [3] is Actin-Related Protein-Testis1 (ARP-T1), wild type, tagged with Myc-DDK (human) (UniProt Q8TDG2). Put plainly: co-IP. The source holds these as a separate data set.

Read-outs that look alike come from different tables or passages of the source. Results are given in words; binding and its absence hold for the method and conditions named. Binding seen in cells or lysates may run through a third protein. Some entries that bind do so weakly or less than the wild type. For part of these data: Where a sequence is shown, tags or fusion partners need not be part of it.

Regarding “ARP-T1, endogenous (from UniProt Q8TDG2 1-376)”, the binding result with EHD4 tagged with V5 is “binds”.

For “Bcl2-associated athanogen (BAG2) protein (from UniProt O95816 1-211)”, the binding result in assay [1] was “binds”.

Take “heat shock cognate 71 kDa protein (Hsc70) (from UniProt P11142 1-646)”: the binding entry in assay [1] is on record as “binds”.

In the case of “TCP8 (one of 8 subunits of chaperonin-containing T-complex) (from UniProt P50990 1-548)”, the binding result in assay [1] is given as “binds”.

B1: Septin2 (protein, UniProt Q15019 1-361)
chain: MSKQQPTQFINPETPGYVGFANLPNQVHRKSVKKGFEFTLMVVGESGLGKSTLINSLFLTDLYPERVIPGAAEKIERTVQIEASTVEIEERGVKLRLTVVDTPGYGDAINCRDCFKTIISYIDEQFERYLHDESGLNRRHIIDNRVHCCFYFISPFGHGLKPLDVAFMKAIHNKVNIVPVIAKADTLTLKERERLKKRILDEIEEHNIKIYHLPDAESDEDEDFKEQTRLLKASIPFSVVGSNQLIEAKGKKVRGRLYPWGVVEVENPEHNDFLKLRTMLITHMQDLQEVTQDLHYENFRSERLKRGGRKVENEDMNKDQILLEKEAELRRMQEMIARMQAQMQMQMQGGDGDGGALGHHV
In the case of B1, the binding entry in assay [2] and in assay [3] was “binds” throughout.

B2: EHD4, endogenous (protein, UniProt Q9H223 1-541)
chain: T1 sequence
In the case of B2, the binding entry in assay [2] and in assay [3] was “binds” throughout.

B3: Septin9 (protein, UniProt Q9UHD8 1-586)
chain: MKKSYSGGTRTSSGRLRRLGDSSGPALKRSFEVEEVETPNSTPPRRVQTPLLRATVASSTQKFQDLGVKNSEPSARHVDSLSQRSPKASLRRVELSGPKAAEPVSRRTELSIDISSKQVENAGAIGPSRFGLKRAEVLGHKTPEPAPRRTEITIVKPQESAHRRMEPPASKVPEVPTAPATDAAPKRVEIQMPKPAEAPTAPSPAQTLENSEPAPVSQLQSRLEPKPQPPVAEATPRSQEATEAAPSCVGDMADTPRDAGLKQAPASRNEKAPVDFGYVGIDSILEQMRRKAMKQGFEFNIMVVGQSGLGKSTLINTLFKSKISRKSVQPTSEERIPKTIEIKSITHDIEEKGVRMKLTVIDTPGFGDHINNENCWQPIMKFINDQYEKYLQEEVNINRKKRIPDTRVHCCLYFIPATGHSLRPLDIEFMKRLSKVVNIVPVIAKADTLTLEERVHFKQRITADLLSNGIDVYPQKEFDEDSEDRLVNEKFREMIPFAVVGSDHEYQVNGKRILGRKTKWGTIEVENTTHCEFAYLRDLLIRTHMQNIKDITSSIHFEAYRVKRLNEGSSAMANGMEEKEPEAPEM
As for B3, in assay [3], the binding entry is listed as “binds”.
